These are yes or no findings as the source states them, for the method shown. Some results given as binding are weak or reduced against the parent protein; the word gives no strength. Values belong to the binder of their own block, whether it stands above or below them.
Tests used:
[1] = molecular target: T1, Biotinylated recombinant human CD6 (human) (UniProt P30203); test: SPR (Biacore 3000), biotinylated rhCD6 captured on SA chip at three densities, antibody as analyte
T1 sequence (biotinylated (site not stated), looked up): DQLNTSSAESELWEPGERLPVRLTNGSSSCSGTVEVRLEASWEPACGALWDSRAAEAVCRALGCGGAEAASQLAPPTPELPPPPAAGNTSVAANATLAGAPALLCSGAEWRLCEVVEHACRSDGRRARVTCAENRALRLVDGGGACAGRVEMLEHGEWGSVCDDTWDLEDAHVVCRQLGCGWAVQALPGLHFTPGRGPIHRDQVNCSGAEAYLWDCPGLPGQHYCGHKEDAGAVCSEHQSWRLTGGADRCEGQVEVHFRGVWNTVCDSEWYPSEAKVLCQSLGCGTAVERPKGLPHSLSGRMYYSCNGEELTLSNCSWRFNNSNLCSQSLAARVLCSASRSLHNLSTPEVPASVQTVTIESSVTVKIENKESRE

[2] = molecular target: T1, Biotinylated recombinant human CD6 (human); test: SPR (Biacore 3000), biotinylated rhCD6 on SA chip, itolizumab 900 nM to 0.137 nM
[3] = molecular target: T1, Biotinylated recombinant human CD6 (human); test: SPR (Biacore 3000), biotinylated rhCD6 on SA chip, Fab 900 nM to 11.1 nM

B1: itolizumab (antibody, human IgG1, kappa, V domains shown)
VH: EVQLVESGGGLVKPGGSLKLSCAASGFKFSRYAMSWVRQAPGKRLEWVATISSGGSYIYYPDSVKGRFTISRDNVKNTLYLQMSSLRSEDTAMYYCARRDYDLDYFDSWGQGTLVTVSS
VL: DIQMTQSPSSLSASVGDRVTITCKASRDIRSYLTWYQQKPGKAPKTLIYYATSLADGVPSRFSGSGSGQDYSLTISSLESDDTATYYCLQHGESPFTLGSGTKLEIKR
notes: Humanized anti-CD6 monoclonal antibody; also called EQ001; ALZUMAB
binding [1]: binds
binding [2]: binds

binding [3]: binds
B2: itolizumab fab (Fab, V domains shown)
VH: B1 VH
VL: DIQMTQSPSSLSASVGDRVTITCKASRDIRSYLTWYQQKPGKAPKTLIYYATSLADGVPSRFSGSGSGQDYSLTISSLESDDTATYYCLQHGESPFTLGSGTKLEIK
